Source: the supplement of paper PMC11546906
Where a name gives a salt, the structure may show the parent alone. The list shows a part of the results. Single values are uncertain here, since repeats match poorly.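 A screen tested FDA-approved drugs combined with one-eighth-MIC colistin against a clinical mcr-1-positive, multidrug-resistant E. coli isolate, measuring OD600 at 24 h. Controls were untreated bacteria (growth) and broth alone (blank). An OD600 under 0.2 marked a combination as active.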

tested on: Escherichia coli 42 (mcr-1-positive clinical isolate); assay: OD600 after 24 h growth with compound plus colistin (absorbance units (OD600)); higher = more bacterial growth (less inhibition); conditions: first compound 25 µM; colistin concentration 0.5 ug/mL; incubation time 24 h; 37 °C

Row | SMILES | OD600
1 | Cc1nnc(NS(=O)(=O)c2ccc(N)cc2)s1 [Sulfamethizole] + CCC(C)CCCC(=O)N[C@@H](CCN)C(=O)N[C@H](C(=O)N[C@@H](CCN)C(=O)N[C@H]1CCNC(=O)[C@H]([C@@H](C)O)NC(=O)[C@H](CCN)NC(=O)[C@H](CCN)NC(=O)[C@H](CC(C)C)NC(=O)[C@@H](CC(C)C)NC(=O)[C@H](CCN)NC1=O)[C@@H](C)O [colistin] | inactive: 0.986
2 | C=C1CC[C@H](O)C/C1=C/C=C1\CCC[C@]2(C)[C@@H]([C@H](C)/C=C/[C@H](C)C(C)C)CC[C@@H]12 [Vitamin D2] + CCC(C)CCCC(=O)N[C@@H](CCN)C(=O)N[C@H](C(=O)N[C@@H](CCN)C(=O)N[C@H]1CCNC(=O)[C@H]([C@@H](C)O)NC(=O)[C@H](CCN)NC(=O)[C@H](CCN)NC(=O)[C@H](CC(C)C)NC(=O)[C@@H](CC(C)C)NC(=O)[C@H](CCN)NC1=O)[C@@H](C)O [colistin] | inactive: 1.01
3 | COc1c(N2CCNC(C)C2)c(F)cc2c(=O)c(C(=O)O)cn(C3CC3)c12 (stereo not drawn) [Gatifloxacin] + CCC(C)CCCC(=O)N[C@@H](CCN)C(=O)N[C@H](C(=O)N[C@@H](CCN)C(=O)N[C@H]1CCNC(=O)[C@H]([C@@H](C)O)NC(=O)[C@H](CCN)NC(=O)[C@H](CCN)NC(=O)[C@H](CC(C)C)NC(=O)[C@@H](CC(C)C)NC(=O)[C@H](CCN)NC1=O)[C@@H](C)O [colistin] | inactive: 0.703
4 | CC(=O)Nc1cccc(-n2c(=O)n(C3CC3)c(=O)c3c(Nc4ccc(I)cc4F)n(C)c(=O)c(C)c32)c1 [Trametinib] + CCC(C)CCCC(=O)N[C@@H](CCN)C(=O)N[C@H](C(=O)N[C@@H](CCN)C(=O)N[C@H]1CCNC(=O)[C@H]([C@@H](C)O)NC(=O)[C@H](CCN)NC(=O)[C@H](CCN)NC(=O)[C@H](CC(C)C)NC(=O)[C@@H](CC(C)C)NC(=O)[C@H](CCN)NC1=O)[C@@H](C)O [colistin] | inactive: 1.01
5 | CC1Cc2ccccc2N1NC(=O)c1ccc(Cl)c(S(N)(=O)=O)c1 (stereo not drawn) [Indapamide] + CCC(C)CCCC(=O)N[C@@H](CCN)C(=O)N[C@H](C(=O)N[C@@H](CCN)C(=O)N[C@H]1CCNC(=O)[C@H]([C@@H](C)O)NC(=O)[C@H](CCN)NC(=O)[C@H](CCN)NC(=O)[C@H](CC(C)C)NC(=O)[C@@H](CC(C)C)NC(=O)[C@H](CCN)NC1=O)[C@@H](C)O [colistin] | inactive: 1.03
6 | CS(=O)(=O)CCNCc1ccc(-c2ccc3ncnc(Nc4ccc(OCc5cccc(F)c5)c(Cl)c4)c3c2)o1 [Lapatinib ditosylate] + CCC(C)CCCC(=O)N[C@@H](CCN)C(=O)N[C@H](C(=O)N[C@@H](CCN)C(=O)N[C@H]1CCNC(=O)[C@H]([C@@H](C)O)NC(=O)[C@H](CCN)NC(=O)[C@H](CCN)NC(=O)[C@H](CC(C)C)NC(=O)[C@@H](CC(C)C)NC(=O)[C@H](CCN)NC1=O)[C@@H](C)O [colistin] | inactive: 1.09
7 | CCCSc1nc(N[C@@H]2C[C@H]2c2ccc(F)c(F)c2)c2nnn([C@@H]3C[C@H](OCCO)[C@@H](O)[C@H]3O)c2n1 [Ticagrelor] + CCC(C)CCCC(=O)N[C@@H](CCN)C(=O)N[C@H](C(=O)N[C@@H](CCN)C(=O)N[C@H]1CCNC(=O)[C@H]([C@@H](C)O)NC(=O)[C@H](CCN)NC(=O)[C@H](CCN)NC(=O)[C@H](CC(C)C)NC(=O)[C@@H](CC(C)C)NC(=O)[C@H](CCN)NC1=O)[C@@H](C)O [colistin] | inactive: 1.08
8 | C[C@]12CC[C@@H]3c4ccc(O)cc4CC[C@H]3[C@@H]1CCC2=O [Estrone] + CCC(C)CCCC(=O)N[C@@H](CCN)C(=O)N[C@H](C(=O)N[C@@H](CCN)C(=O)N[C@H]1CCNC(=O)[C@H]([C@@H](C)O)NC(=O)[C@H](CCN)NC(=O)[C@H](CCN)NC(=O)[C@H](CC(C)C)NC(=O)[C@@H](CC(C)C)NC(=O)[C@H](CCN)NC1=O)[C@@H](C)O [colistin] | inactive: 0.902
9 | CC(C)[N+](C)(CCOC(=O)C1c2ccccc2Oc2ccccc21)C(C)C [Propantheline bromide] + CCC(C)CCCC(=O)N[C@@H](CCN)C(=O)N[C@H](C(=O)N[C@@H](CCN)C(=O)N[C@H]1CCNC(=O)[C@H]([C@@H](C)O)NC(=O)[C@H](CCN)NC(=O)[C@H](CCN)NC(=O)[C@H](CC(C)C)NC(=O)[C@@H](CC(C)C)NC(=O)[C@H](CCN)NC1=O)[C@@H](C)O [colistin] | inactive: 0.983
10 | CCN1CCN(Cc2ccc(Nc3ncc(F)c(-c4cc(F)c5nc(C)n(C(C)C)c5c4)n3)nc2)CC1 [Abemaciclib methanesulfonate] + CCC(C)CCCC(=O)N[C@@H](CCN)C(=O)N[C@H](C(=O)N[C@@H](CCN)C(=O)N[C@H]1CCNC(=O)[C@H]([C@@H](C)O)NC(=O)[C@H](CCN)NC(=O)[C@H](CCN)NC(=O)[C@H](CC(C)C)NC(=O)[C@@H](CC(C)C)NC(=O)[C@H](CCN)NC1=O)[C@@H](C)O [colistin] | inactive: 0.917
11 | CC(C)c1ccc2oc3nc(N)c(C(=O)O)cc3c(=O)c2c1 [Amlexanox] + CCC(C)CCCC(=O)N[C@@H](CCN)C(=O)N[C@H](C(=O)N[C@@H](CCN)C(=O)N[C@H]1CCNC(=O)[C@H]([C@@H](C)O)NC(=O)[C@H](CCN)NC(=O)[C@H](CCN)NC(=O)[C@H](CC(C)C)NC(=O)[C@@H](CC(C)C)NC(=O)[C@H](CCN)NC1=O)[C@@H](C)O [colistin] | inactive: 0.93
12 | NC(CO)(CO)CO [Trometamol] + CCC(C)CCCC(=O)N[C@@H](CCN)C(=O)N[C@H](C(=O)N[C@@H](CCN)C(=O)N[C@H]1CCNC(=O)[C@H]([C@@H](C)O)NC(=O)[C@H](CCN)NC(=O)[C@H](CCN)NC(=O)[C@H](CC(C)C)NC(=O)[C@@H](CC(C)C)NC(=O)[C@H](CCN)NC1=O)[C@@H](C)O [colistin] | inactive: 0.766
13 | Nc1ccc(O)c(C(=O)O)c1 [5-Aminosalicylic Acid] + CCC(C)CCCC(=O)N[C@@H](CCN)C(=O)N[C@H](C(=O)N[C@@H](CCN)C(=O)N[C@H]1CCNC(=O)[C@H]([C@@H](C)O)NC(=O)[C@H](CCN)NC(=O)[C@H](CCN)NC(=O)[C@H](CC(C)C)NC(=O)[C@@H](CC(C)C)NC(=O)[C@H](CCN)NC1=O)[C@@H](C)O [colistin] | inactive: 1.13
14 | CC1(C)S[C@@H]2[C@H](NC(=O)Cc3ccccc3)C(=O)N2[C@H]1C(=O)O [Penicillin G sodium salt] + CCC(C)CCCC(=O)N[C@@H](CCN)C(=O)N[C@H](C(=O)N[C@@H](CCN)C(=O)N[C@H]1CCNC(=O)[C@H]([C@@H](C)O)NC(=O)[C@H](CCN)NC(=O)[C@H](CCN)NC(=O)[C@H](CC(C)C)NC(=O)[C@@H](CC(C)C)NC(=O)[C@H](CCN)NC1=O)[C@@H](C)O [colistin] | inactive: 0.995
15 | Clc1ccc(CO/N=C(\Cn2ccnc2)c2ccc(Cl)cc2Cl)c(Cl)c1 [Oxiconazole nitrate] + CCC(C)CCCC(=O)N[C@@H](CCN)C(=O)N[C@H](C(=O)N[C@@H](CCN)C(=O)N[C@H]1CCNC(=O)[C@H]([C@@H](C)O)NC(=O)[C@H](CCN)NC(=O)[C@H](CCN)NC(=O)[C@H](CC(C)C)NC(=O)[C@@H](CC(C)C)NC(=O)[C@H](CCN)NC1=O)[C@@H](C)O [colistin] | active: 0.044
16 | COc1ccc2c3c1O[C@H]1C[C@@H](O)C=C[C@@]31CCN(C)C2 [Galanthamine hydrobromide] + CCC(C)CCCC(=O)N[C@@H](CCN)C(=O)N[C@H](C(=O)N[C@@H](CCN)C(=O)N[C@H]1CCNC(=O)[C@H]([C@@H](C)O)NC(=O)[C@H](CCN)NC(=O)[C@H](CCN)NC(=O)[C@H](CC(C)C)NC(=O)[C@@H](CC(C)C)NC(=O)[C@H](CCN)NC1=O)[C@@H](C)O [colistin] | inactive: 1.14
17 | CC[C@@]1(O)C(=O)OCc2c1cc1n(c2=O)Cc2cc3c(CN(C)C)c(O)ccc3nc2-1 [Topotecan hydrochloride] + CCC(C)CCCC(=O)N[C@@H](CCN)C(=O)N[C@H](C(=O)N[C@@H](CCN)C(=O)N[C@H]1CCNC(=O)[C@H]([C@@H](C)O)NC(=O)[C@H](CCN)NC(=O)[C@H](CCN)NC(=O)[C@H](CC(C)C)NC(=O)[C@@H](CC(C)C)NC(=O)[C@H](CCN)NC1=O)[C@@H](C)O [colistin] | inactive: 1.11
18 | O=c1[nH]c(=O)n([C@H]2C[C@H](O)[C@@H](CO)O2)cc1C(F)(F)F [Trifluridine] + CCC(C)CCCC(=O)N[C@@H](CCN)C(=O)N[C@H](C(=O)N[C@@H](CCN)C(=O)N[C@H]1CCNC(=O)[C@H]([C@@H](C)O)NC(=O)[C@H](CCN)NC(=O)[C@H](CCN)NC(=O)[C@H](CC(C)C)NC(=O)[C@@H](CC(C)C)NC(=O)[C@H](CCN)NC1=O)[C@@H](C)O [colistin] | inactive: 0.769

Shown in CSV form: part of the list above
Row,SMILES,OD600
12,NC(CO)(CO)CO [Trometamol] + CCC(C)CCCC(=O)N[C@@H](CCN)C(=O)N[C@H](C(=O)N[C@@H](CCN)C(=O)N[C@H]1CCNC(=O)[C@H]([C@@H](C)O)NC(=O)[C@H](CCN)NC(=O)[C@H](CCN)NC(=O)[C@H](CC(C)C)NC(=O)[C@@H](CC(C)C)NC(=O)[C@H](CCN)NC1=O)[C@@H](C)O [colistin],inactive: 0.766
13,Nc1ccc(O)c(C(=O)O)c1 [5-Aminosalicylic Acid] + CCC(C)CCCC(=O)N[C@@H](CCN)C(=O)N[C@H](C(=O)N[C@@H](CCN)C(=O)N[C@H]1CCNC(=O)[C@H]([C@@H](C)O)NC(=O)[C@H](CCN)NC(=O)[C@H](CCN)NC(=O)[C@H](CC(C)C)NC(=O)[C@@H](CC(C)C)NC(=O)[C@H](CCN)NC1=O)[C@@H](C)O [colistin],inactive: 1.13
